According to paper PMC5554784:
These are yes or no findings as the source states them, for the method shown. Binding seen in cells or lysates may run through a third protein. For some of these results: A result given as binding can be weak or reduced; the word gives no strength.

Experiments:
[1] = biological target: FLAG-Pat1b N-terminal construct (human); assay: co-IP; FLAG-tagged proteins in lysates of transfected HEK293 cells on M2 beads, western blotting of bound proteins; in some experiments cells co-transfected with control (beta-globin), SART3 or Lsm1 siRNA
[2] = biological target: FLAG-Pat1b C-terminal construct (human); assay: as above

binding [1]	binding [2]	Binder
no binding		SART3 (endogenous) (protein, UniProt Q15020 1-963) MATAAETSASEPEAESKAGPKADGEEDEVKAARTRRKVLSRAVAAATYKTMGPAWDQQEEGVSESDGDEYAMASSAESSPGEYEWEYDEEEEKNQLEIERLEEQLSINVYDYNCHVDLIRLLRLEGELTKVRMARQKMSEIFPLTEELWLEWLHDEISMAQDGLDREHVYDLFEKAVKDYICPNIWLEYGQYSVGGIGQKGGLEKVRSVFERALSSVGLHMTKGLALWEAYREFESAIVEAARLEKVHSLFRRQLAIPLYDMEATFAEYEEWSEDPIPESVIQNYNKALQQLEKYKPYEEALLQAEAPRLAEYQAYIDFEMKIGDPARIQLIFERALVENCLVPDLWIRYSQYLDRQLKVKDLVLSVHNRAIRNCPWTVALWSRYLLAMERHGVDHQVISVTFEKALNAGFIQATDYVEIWQAYLDYLRRRVDFKQDSSKELEELRAAFTRALEYLKQEVEERFNESGDPSCVIMQNWARIEARLCNNMQKARELWDSIMTRGNAKYANMWLEYYNLERAHGDTQHCRKALHRAVQCTSDYPEHVCEVLLTMERTEGSLEDWDIAVQKTETRLARVNEQRMKAAEKEAALVQQEEEKAEQRKRARAEKKALKKKKKIRGPEKRGADEDDEKEWGDDEEEQPSKRRRVENSIPAAGETQNVEVAAGPAGKCAAVDVEPPSKQKEKAASLKRDMPKVLHDSSKDSITVFVSNLPYSMQEPDTKLRPLFEACGEVVQIRPIFSNRGDFRGYCYVEFKEEKSALQALEMDRKSVEGRPMFVSPCVDKSKNPDFKVFRYSTSLEKHKLFISGLPFSCTKEELEEICKAHGTVKDLRLVTNRAGKPKGLAYVEYENESQASQAVMKMDGMTIKENIIKVAISNPPQRKVPEKPETRKAPGGPMLLPQTYGARGKGRTQLSLLPRALQRPSAAAPQAENGPAAAPAVAAPAATEAPKMSNADFAKLFLRK
	binds	Lsm8 (protein, UniProt O95777 1-96) MTSALENYINRTVAVITSDGRMIVGTLKGFDQTINLILDESHERVFSSSQGVEQVVLGLYIVRGDNVAVIGEIDEETDSALDLGNIRAEPLNSVAH

Further lines, the binder ahead of its results:

Binder	binding [1]	binding [2]
Lsm2 (protein, UniProt Q9Y333 1-95) MLFYSFFKSLVGKDVVVELKNDLSICGTLHSVDQYLNIKLTDISVTDPEKYPHMLSVKNCFIRGSVVRYVQLPADEVDTQLLQDAARKEALQQKQ		binds
Lsm1 (protein, UniProt O15116 1-133) MNYMPGTASLIEDIDKKHLVLLRDGRTLIGFLRSIDQFANLVLHQTVERIHVGKKYGDIPRGIFVVRGENVVLLGEIDLEKESDTPLQQVSIEEILEEQRVEQQTKLEAEKLKVQALKDRGLSIPRADTLDEY		binds
